Paper PMC9898287
No constants are given. Whether binding was seen depends on the method and setting. Binding seen in cells or lysates may run through a third protein. Some entries that bind do so weakly or less than the wild type. For some assays here: Sequences can lack the tags named with a protein.

Amino acid sequences for entries named in this document (tags omitted).
UniProt P46937: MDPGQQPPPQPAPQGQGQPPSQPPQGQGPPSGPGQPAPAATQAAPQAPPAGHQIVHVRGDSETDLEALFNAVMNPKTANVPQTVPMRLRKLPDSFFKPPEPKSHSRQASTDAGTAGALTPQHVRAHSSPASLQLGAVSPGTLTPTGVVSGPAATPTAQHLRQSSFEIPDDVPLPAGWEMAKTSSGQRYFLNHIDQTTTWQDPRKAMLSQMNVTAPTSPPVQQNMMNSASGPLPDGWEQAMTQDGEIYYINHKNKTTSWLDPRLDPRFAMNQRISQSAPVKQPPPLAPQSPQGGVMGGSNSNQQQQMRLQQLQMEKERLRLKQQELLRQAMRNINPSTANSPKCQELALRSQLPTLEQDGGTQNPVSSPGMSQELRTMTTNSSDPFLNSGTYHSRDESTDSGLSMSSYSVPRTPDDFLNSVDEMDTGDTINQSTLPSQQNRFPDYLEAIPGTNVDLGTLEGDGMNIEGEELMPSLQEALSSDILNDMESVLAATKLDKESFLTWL

Experiments:
[1] = molecular target: T1, Ubiquitin-specific protease 15 (human (endogenous in hPASMCs)) (UniProt Q9Y4E8); test: co-IP; endogenous proteins in lysates of control and hypoxic hPASMCs; anti-USP15, anti-YAP1 and anti-TAZ immunoprecipitations; Pierce Co-IP kit, lysate with antibody-conjugated resin at 4 °C overnight, western blot
T1 sequence: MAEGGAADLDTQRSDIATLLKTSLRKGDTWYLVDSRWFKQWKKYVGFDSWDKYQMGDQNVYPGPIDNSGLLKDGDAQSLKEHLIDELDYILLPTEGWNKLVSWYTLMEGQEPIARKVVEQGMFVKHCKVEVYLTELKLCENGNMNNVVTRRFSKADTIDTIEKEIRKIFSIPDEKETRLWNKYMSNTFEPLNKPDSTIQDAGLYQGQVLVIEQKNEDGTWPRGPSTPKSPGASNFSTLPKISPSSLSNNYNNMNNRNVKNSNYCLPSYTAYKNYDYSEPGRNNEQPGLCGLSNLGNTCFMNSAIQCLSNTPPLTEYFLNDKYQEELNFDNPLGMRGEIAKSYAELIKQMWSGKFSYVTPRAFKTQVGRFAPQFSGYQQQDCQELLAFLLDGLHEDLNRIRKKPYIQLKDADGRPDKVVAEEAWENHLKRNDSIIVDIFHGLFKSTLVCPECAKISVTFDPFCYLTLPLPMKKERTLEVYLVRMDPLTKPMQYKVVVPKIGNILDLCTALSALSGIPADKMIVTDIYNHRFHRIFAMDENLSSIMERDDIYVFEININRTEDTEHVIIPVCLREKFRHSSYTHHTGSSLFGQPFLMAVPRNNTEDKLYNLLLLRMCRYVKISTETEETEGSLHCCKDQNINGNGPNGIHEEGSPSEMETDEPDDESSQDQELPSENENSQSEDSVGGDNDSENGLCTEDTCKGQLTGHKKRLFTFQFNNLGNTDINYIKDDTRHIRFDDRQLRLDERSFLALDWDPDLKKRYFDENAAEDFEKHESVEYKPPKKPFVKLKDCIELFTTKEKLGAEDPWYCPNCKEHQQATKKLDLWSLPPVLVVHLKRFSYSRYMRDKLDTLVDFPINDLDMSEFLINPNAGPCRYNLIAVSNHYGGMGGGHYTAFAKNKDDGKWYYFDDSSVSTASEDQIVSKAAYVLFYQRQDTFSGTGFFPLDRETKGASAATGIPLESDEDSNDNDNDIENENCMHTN

His-tagged USP15 = molecular target: T2, His-tagged USP15 (UniProt Q9Y4E8); test: co-IP; His-tagged USP15 and Myc-tagged YAP1 cotransfected into HEK293T cells, harvested 48 h post-transfection; immunoprecipitation with anti-His antibody, western blot
T2 sequence: T1 sequence

Row | binding [1] | binding (His-tagged USP15) | Substance
1 | binds |  | Yes-associated protein (YAP)-1 (from UniProt P46937 1-504)
2 |  | binds | Myc-tagged YAP1 (from UniProt P46937 1-504)
